Experimental data from the supplement of paper PMC10060354, “Discovery of a small molecule ligand of FRS2 that inhibits invasion and tumor growth” (Cellular Oncology, 2022).

Amino acid sequences for entries named in this document (tags omitted). A change or cut given only in a name is not applied to a line headed by its entry.
UniProt Q9HAU0: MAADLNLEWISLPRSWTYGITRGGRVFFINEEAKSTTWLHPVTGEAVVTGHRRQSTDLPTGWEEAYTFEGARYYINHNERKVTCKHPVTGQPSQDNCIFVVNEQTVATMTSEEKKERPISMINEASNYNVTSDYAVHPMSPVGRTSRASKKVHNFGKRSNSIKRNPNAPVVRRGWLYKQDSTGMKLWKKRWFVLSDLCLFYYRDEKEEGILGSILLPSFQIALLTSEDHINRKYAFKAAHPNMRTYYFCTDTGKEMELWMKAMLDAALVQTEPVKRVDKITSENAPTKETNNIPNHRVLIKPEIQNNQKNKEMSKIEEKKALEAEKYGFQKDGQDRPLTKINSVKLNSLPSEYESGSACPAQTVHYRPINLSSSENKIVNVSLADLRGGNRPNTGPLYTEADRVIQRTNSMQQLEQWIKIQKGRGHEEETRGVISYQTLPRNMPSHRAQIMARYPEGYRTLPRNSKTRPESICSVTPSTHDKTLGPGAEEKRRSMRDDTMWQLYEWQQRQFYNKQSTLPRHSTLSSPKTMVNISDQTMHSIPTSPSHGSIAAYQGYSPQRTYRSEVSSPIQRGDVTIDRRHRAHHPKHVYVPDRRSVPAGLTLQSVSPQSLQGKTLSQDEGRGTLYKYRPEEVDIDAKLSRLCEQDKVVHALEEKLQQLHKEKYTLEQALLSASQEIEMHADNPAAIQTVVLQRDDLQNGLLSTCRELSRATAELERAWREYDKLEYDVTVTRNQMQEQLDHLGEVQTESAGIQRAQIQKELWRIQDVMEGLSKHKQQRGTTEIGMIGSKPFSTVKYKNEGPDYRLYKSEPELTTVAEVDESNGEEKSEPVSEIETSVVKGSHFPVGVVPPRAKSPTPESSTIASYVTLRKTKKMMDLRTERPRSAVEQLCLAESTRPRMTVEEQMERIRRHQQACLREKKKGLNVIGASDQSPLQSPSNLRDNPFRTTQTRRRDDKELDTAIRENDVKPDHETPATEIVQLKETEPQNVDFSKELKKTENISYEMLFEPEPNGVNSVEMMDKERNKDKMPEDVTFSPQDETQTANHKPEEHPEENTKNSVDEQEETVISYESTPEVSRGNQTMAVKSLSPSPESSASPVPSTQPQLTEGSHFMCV
UniProt Q68DX3: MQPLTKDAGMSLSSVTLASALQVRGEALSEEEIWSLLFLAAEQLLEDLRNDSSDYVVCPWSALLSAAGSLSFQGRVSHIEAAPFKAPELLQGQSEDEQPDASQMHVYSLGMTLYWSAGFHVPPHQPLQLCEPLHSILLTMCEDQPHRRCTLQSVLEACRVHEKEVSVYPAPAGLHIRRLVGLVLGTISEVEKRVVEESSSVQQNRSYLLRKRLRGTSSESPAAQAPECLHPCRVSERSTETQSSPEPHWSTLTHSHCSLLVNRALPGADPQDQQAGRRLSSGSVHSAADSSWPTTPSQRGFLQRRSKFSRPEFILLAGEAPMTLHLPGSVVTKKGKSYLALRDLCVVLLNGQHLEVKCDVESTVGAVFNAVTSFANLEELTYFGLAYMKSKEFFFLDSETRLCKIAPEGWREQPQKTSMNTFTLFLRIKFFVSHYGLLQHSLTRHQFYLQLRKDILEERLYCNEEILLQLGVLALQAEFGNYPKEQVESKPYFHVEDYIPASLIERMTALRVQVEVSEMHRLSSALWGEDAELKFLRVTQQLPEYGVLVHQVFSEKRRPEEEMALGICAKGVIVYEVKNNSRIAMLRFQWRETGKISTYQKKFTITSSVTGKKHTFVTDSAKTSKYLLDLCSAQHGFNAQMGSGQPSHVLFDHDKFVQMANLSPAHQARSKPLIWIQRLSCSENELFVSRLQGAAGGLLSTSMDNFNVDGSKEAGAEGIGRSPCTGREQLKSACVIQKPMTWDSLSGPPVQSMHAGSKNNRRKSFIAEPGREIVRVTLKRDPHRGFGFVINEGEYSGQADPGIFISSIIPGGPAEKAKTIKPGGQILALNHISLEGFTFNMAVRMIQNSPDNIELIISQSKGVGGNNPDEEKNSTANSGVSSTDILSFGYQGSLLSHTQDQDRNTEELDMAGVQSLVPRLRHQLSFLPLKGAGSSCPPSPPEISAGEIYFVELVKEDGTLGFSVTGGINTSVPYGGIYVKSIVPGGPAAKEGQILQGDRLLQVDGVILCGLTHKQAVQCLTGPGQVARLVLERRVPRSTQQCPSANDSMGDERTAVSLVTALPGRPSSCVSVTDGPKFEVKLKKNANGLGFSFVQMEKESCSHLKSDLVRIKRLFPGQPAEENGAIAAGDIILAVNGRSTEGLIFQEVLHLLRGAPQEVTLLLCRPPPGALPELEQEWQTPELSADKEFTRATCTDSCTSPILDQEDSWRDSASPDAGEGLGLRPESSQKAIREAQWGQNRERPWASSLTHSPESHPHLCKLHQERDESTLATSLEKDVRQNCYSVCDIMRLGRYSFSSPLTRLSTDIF
UniProt O95166, whole entry: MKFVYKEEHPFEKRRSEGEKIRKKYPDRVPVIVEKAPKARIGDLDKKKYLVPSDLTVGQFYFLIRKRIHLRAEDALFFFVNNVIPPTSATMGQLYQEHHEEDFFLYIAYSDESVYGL
UniProt Q9NV31: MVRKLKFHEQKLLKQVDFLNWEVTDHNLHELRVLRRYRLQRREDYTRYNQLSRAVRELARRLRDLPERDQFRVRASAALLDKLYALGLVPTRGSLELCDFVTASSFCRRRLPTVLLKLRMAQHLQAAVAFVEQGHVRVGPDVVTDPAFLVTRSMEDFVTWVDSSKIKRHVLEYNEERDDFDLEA
UniProt Q13443: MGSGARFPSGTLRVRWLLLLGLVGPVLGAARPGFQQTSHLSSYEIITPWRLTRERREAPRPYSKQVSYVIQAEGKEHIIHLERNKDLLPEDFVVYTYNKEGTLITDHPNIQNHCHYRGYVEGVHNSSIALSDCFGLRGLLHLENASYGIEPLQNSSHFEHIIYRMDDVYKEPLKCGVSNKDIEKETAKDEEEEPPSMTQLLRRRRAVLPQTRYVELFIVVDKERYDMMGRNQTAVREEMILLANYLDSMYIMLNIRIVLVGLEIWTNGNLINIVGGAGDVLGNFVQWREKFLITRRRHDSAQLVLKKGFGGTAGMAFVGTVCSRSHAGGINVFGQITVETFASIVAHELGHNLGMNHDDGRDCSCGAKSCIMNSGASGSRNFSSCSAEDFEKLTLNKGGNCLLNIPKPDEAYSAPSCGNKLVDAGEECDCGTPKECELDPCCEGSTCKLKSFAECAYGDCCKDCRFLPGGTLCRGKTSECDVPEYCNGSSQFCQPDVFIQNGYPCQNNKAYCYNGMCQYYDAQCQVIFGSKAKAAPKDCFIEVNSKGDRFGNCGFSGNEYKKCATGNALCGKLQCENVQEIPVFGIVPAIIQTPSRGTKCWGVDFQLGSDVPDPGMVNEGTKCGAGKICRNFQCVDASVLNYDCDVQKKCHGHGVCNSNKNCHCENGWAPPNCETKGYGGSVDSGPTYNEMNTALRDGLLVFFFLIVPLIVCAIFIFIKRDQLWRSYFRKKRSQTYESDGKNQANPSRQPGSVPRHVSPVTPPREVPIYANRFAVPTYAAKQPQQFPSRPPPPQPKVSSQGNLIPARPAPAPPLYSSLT
UniProt P10589: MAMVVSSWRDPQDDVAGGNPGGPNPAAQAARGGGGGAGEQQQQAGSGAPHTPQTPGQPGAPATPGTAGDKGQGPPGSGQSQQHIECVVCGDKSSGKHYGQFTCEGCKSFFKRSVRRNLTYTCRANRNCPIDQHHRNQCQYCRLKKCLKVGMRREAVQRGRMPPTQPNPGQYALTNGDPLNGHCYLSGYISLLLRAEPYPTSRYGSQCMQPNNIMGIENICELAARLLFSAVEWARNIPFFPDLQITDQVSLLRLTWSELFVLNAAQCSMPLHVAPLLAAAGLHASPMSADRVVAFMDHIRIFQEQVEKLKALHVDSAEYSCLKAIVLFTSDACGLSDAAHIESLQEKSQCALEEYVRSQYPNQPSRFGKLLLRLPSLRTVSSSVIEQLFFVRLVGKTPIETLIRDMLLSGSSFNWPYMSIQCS
UniProt O60293: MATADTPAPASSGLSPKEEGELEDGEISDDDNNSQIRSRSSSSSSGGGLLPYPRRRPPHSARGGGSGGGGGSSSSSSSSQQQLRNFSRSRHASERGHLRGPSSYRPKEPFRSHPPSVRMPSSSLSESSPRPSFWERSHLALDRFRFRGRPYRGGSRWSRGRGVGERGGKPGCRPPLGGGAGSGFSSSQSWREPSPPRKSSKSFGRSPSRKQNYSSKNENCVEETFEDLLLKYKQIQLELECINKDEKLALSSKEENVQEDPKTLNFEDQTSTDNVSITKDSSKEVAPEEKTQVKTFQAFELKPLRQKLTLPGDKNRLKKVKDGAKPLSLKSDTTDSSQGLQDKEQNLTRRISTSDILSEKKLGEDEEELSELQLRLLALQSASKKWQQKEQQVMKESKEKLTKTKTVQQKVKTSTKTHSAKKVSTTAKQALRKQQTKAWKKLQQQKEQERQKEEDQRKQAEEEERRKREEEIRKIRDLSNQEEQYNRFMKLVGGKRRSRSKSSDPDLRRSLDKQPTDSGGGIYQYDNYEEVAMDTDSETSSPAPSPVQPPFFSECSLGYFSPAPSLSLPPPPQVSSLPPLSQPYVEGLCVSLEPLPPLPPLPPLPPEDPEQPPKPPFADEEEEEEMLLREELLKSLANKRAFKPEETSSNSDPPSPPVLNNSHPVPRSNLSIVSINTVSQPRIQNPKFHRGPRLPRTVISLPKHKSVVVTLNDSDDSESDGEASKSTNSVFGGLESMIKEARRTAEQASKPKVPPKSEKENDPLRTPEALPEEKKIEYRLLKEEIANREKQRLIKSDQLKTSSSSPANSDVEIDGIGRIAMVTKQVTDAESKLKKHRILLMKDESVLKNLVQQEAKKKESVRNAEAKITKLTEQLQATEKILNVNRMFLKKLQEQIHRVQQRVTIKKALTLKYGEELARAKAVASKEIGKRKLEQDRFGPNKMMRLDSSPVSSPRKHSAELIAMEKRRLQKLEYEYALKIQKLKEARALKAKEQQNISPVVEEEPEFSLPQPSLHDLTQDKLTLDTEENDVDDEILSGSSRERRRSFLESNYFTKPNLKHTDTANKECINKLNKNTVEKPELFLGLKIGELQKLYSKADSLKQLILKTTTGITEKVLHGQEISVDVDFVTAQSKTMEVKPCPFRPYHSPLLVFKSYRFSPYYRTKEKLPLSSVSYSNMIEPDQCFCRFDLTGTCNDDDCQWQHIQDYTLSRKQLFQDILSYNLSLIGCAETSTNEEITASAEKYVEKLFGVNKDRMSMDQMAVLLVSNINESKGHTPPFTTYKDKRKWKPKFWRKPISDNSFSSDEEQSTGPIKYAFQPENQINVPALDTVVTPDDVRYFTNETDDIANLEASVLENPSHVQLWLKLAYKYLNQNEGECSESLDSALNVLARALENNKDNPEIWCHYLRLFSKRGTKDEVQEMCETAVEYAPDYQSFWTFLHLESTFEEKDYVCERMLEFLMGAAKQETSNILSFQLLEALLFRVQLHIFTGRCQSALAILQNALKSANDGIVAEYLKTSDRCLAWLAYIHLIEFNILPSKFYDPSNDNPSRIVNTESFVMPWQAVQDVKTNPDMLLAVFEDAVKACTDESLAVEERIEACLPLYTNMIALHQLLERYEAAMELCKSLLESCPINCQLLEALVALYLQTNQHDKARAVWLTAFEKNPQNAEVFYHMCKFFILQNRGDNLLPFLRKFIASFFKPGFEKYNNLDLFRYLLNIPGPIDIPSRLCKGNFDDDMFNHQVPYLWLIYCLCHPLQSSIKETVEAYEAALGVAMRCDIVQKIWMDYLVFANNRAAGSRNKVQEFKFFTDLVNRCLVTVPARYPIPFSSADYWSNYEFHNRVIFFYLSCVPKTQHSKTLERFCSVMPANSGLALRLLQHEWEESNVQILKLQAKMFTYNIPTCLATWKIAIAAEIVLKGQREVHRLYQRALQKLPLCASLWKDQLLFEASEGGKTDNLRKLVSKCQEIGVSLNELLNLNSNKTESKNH
UniProt O95870: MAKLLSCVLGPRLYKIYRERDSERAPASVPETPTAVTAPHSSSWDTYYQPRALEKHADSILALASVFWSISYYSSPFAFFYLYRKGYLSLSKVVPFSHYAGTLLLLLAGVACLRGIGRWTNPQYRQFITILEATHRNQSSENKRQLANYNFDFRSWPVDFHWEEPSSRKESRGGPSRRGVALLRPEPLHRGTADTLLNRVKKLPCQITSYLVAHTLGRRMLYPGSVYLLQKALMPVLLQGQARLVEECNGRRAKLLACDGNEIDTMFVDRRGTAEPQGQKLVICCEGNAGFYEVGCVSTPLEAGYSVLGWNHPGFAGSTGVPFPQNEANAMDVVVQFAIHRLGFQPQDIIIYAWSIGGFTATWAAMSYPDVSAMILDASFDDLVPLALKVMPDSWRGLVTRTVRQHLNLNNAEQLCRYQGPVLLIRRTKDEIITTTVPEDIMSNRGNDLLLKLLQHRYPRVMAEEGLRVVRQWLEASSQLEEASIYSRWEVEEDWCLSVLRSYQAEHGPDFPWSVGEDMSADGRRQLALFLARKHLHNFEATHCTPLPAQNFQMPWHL

Compound: [O-][N+](C(C1=C(C(O)=C2)NC(C(C=C3)=CC=C3Cl)C4C1C=CC4)=C2Cl)=O
Test: melting temperature shift (compound 7 minus DMSO); higher = compound stabilises the protein
Conditions: 10 µM
Description: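 Thermal proteome profiling (TMT mass spectrometry) in intact DAOY medulloblastoma cells or DAOY lysates treated with 10 µM compound 7 or DMSO, heated at 10 temperatures from 40.5 to 73.8 °C for 3 min. Melting curves were fitted with the Bioconductor TPP package, and the melting point difference between compound and vehicle is reported per protein (single curve per condition).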

[1] = system: DAOY cell lysate, treatment time: 20 min, 4 °C
[2] = system: intact DAOY cells, treatment time: 90 min, 37 °C

GNPNAT1 (UniProt Q96EK6)
melting temperature shift [1]: -0.969 °C | melting temperature shift [2]: -0.797 °C

PIGK (UniProt Q92643)
melting temperature shift [1]: 1.3 °C | melting temperature shift [2]: -0.973 °C

HAUS8 (UniProt Q9BT25)
melting temperature shift [1]: 0.551 °C | melting temperature shift [2]: -1.2 °C

ALCAM (UniProt Q13740)
melting temperature shift [1]: 1.95 °C

FLNA (UniProt P21333)
melting temperature shift [1]: -0.263 °C | melting temperature shift [2]: -0.5 °C

HSPA5 (UniProt P11021)
melting temperature shift [1]: 1.09 °C | melting temperature shift [2]: -0.652 °C

COPS4 (UniProt Q9BT78)
melting temperature shift [1]: -0.555 °C | melting temperature shift [2]: -0.0254 °C

PLD3 (UniProt Q8IV08)
melting temperature shift [1]: -0.675 °C | melting temperature shift [2]: -0.362 °C

UBE2G2 (UniProt P60604)
melting temperature shift [1]: -1.76 °C | melting temperature shift [2]: 0.757 °C

ZC3H7A (UniProt Q8IWR0)
melting temperature shift [1]: -0.927 °C | melting temperature shift [2]: 1.49 °C

LRWD1 (UniProt Q9UFC0)
melting temperature shift [1]: 0.273 °C | melting temperature shift [2]: -0.544 °C

SPATA5L1 (UniProt Q9BVQ7)
melting temperature shift [1]: -1.59 °C | melting temperature shift [2]: 1.05 °C

BCAP31 (UniProt P51572)
melting temperature shift [1]: 3.07 °C

GNAI1 (UniProt P63096)
melting temperature shift [1]: 0.0696 °C | melting temperature shift [2]: 1.15 °C

UniProt P49750
melting temperature shift [1]: 0.934 °C | melting temperature shift [2]: -1.91 °C

FAM234B (UniProt A2RU67)
melting temperature shift [2]: 6.48 °C

DNAJC1 (UniProt Q96KC8)
melting temperature shift [2]: -1.29 °C

PLEKHA5 (UniProt Q9HAU0)
melting temperature shift [1]: -0.127 °C | melting temperature shift [2]: 1.42 °C

THOC1 (UniProt Q96FV9)
melting temperature shift [1]: 1.4 °C

RSL24D1 (UniProt Q9UHA3)
melting temperature shift [1]: 1.46 °C | melting temperature shift [2]: 1.26 °C

TFG (UniProt Q92734)
melting temperature shift [1]: -1.52 °C | melting temperature shift [2]: 0.349 °C

CHD1L (UniProt Q86WJ1)
melting temperature shift [1]: -0.665 °C | melting temperature shift [2]: -1.04 °C

UniProt Q9Y2J2
melting temperature shift [1]: 0.97 °C | melting temperature shift [2]: -0.127 °C

UniProt P56377
melting temperature shift [1]: 0.231 °C | melting temperature shift [2]: 1.06 °C

RPS29 (UniProt P62273)
melting temperature shift [1]: 1.6 °C | melting temperature shift [2]: -0.818 °C

NUBP1 (UniProt P53384)
melting temperature shift [1]: -0.169 °C | melting temperature shift [2]: -0.498 °C

UniProt Q68DX3
melting temperature shift [1]: 0.251 °C

NUMA1 (UniProt Q14980)
melting temperature shift [1]: -0.141 °C | melting temperature shift [2]: 0.376 °C

UniProt P35749
melting temperature shift [2]: -2.87 °C

HDHD2 (UniProt Q9H0R4)
melting temperature shift [1]: -0.602 °C | melting temperature shift [2]: 1.28 °C

CAPZA2 (UniProt P47755)
melting temperature shift [1]: -0.663 °C | melting temperature shift [2]: 0.172 °C

ARPC4 (UniProt P59998)
melting temperature shift [1]: -1.49 °C | melting temperature shift [2]: 0.507 °C

RNH1 (UniProt P13489)
melting temperature shift [1]: -0.23 °C | melting temperature shift [2]: 0.311 °C

RPS18 (UniProt P62269)
melting temperature shift [1]: -0.331 °C | melting temperature shift [2]: -1.01 °C

DHX9 (UniProt Q08211)
melting temperature shift [1]: 0.248 °C | melting temperature shift [2]: -0.424 °C

CLPB (UniProt Q9H078)
melting temperature shift [1]: 0.766 °C | melting temperature shift [2]: -0.222 °C

ZHX3 (UniProt Q9H4I2)
melting temperature shift [1]: -0.216 °C

RPL6 (UniProt Q02878)
melting temperature shift [1]: 0.898 °C | melting temperature shift [2]: -0.495 °C

UBE2F (UniProt Q969M7)
melting temperature shift [1]: 0.277 °C | melting temperature shift [2]: -0.521 °C

UniProt Q86US8
melting temperature shift [1]: 0.228 °C

PCCB (UniProt P05166)
melting temperature shift [1]: 1.87 °C | melting temperature shift [2]: -0.679 °C

MB21D1 (UniProt Q8N884)
melting temperature shift [1]: -1.21 °C | melting temperature shift [2]: -1.69 °C

UniProt P02768
melting temperature shift [1]: -0.27 °C

SNF8 (UniProt Q96H20)
melting temperature shift [1]: -1.92 °C | melting temperature shift [2]: 0.0188 °C

UniProt Q8NF91
melting temperature shift [1]: -1.91 °C

GABARAP (UniProt O95166)
melting temperature shift [1]: -1.04 °C

TARSL2 (UniProt A2RTX5)
melting temperature shift [2]: 1.28 °C

NDC1 (UniProt Q9BTX1)
melting temperature shift [1]: 1.43 °C | melting temperature shift [2]: -0.591 °C

UniProt Q9UQ16
melting temperature shift [1]: -0.614 °C

FOSL2 (UniProt P15408)
melting temperature shift [1]: 2.21 °C

CCDC59 (UniProt Q9P031)
melting temperature shift [1]: 0.0571 °C

IMP3 (UniProt Q9NV31)
melting temperature shift [1]: 1.34 °C

UniProt Q9GZV4
melting temperature shift [1]: -1.82 °C

ADAM9 (UniProt Q13443)
melting temperature shift [1]: 1.14 °C | melting temperature shift [2]: -0.339 °C

MRPL17 (UniProt Q9NRX2)
melting temperature shift [1]: 1.91 °C | melting temperature shift [2]: -1.68 °C

UniProt Q3ZCM7
melting temperature shift [2]: 0.26 °C

NRBP1 (UniProt Q9UHY1)
melting temperature shift [1]: -0.597 °C | melting temperature shift [2]: 0.381 °C

EIF4G2 (UniProt P78344)
melting temperature shift [1]: -0.338 °C | melting temperature shift [2]: -0.821 °C

UniProt Q96A72
melting temperature shift [2]: 1.32 °C

PXN (UniProt P49023)
melting temperature shift [1]: -2.03 °C | melting temperature shift [2]: 1.53 °C

COG8 (UniProt Q96MW5)
melting temperature shift [1]: -0.00195 °C | melting temperature shift [2]: -0.0197 °C

EIF4A1 (UniProt P60842)
melting temperature shift [1]: -0.488 °C | melting temperature shift [2]: -0.0876 °C

KIAA1468 (UniProt Q9P260)
melting temperature shift [1]: -0.579 °C | melting temperature shift [2]: -0.542 °C

UniProt Q9UBF1
melting temperature shift [1]: -2.12 °C | melting temperature shift [2]: 0.935 °C

KDM3B (UniProt Q7LBC6)
melting temperature shift [1]: -1.31 °C | melting temperature shift [2]: 0.0279 °C

PIP5K1A (UniProt Q99755)
melting temperature shift [1]: 0.701 °C | melting temperature shift [2]: -2.83 °C

UniProt P39060
melting temperature shift [1]: -0.312 °C | melting temperature shift [2]: -0.98 °C

UFL1 (UniProt O94874)
melting temperature shift [1]: 0.585 °C | melting temperature shift [2]: -0.515 °C

RBM26 (UniProt Q5T8P6)
melting temperature shift [1]: -1.23 °C | melting temperature shift [2]: -1.04 °C

UniProt Q9Y6J9
melting temperature shift [1]: -0.0579 °C | melting temperature shift [2]: -0.772 °C

CLASP1 (UniProt Q7Z460)
melting temperature shift [1]: 0.0147 °C | melting temperature shift [2]: 1.36 °C

PSMD11 (UniProt O00231)
melting temperature shift [1]: -0.424 °C | melting temperature shift [2]: -0.795 °C

UniProt P42167
melting temperature shift [1]: 1.44 °C | melting temperature shift [2]: 0.808 °C

MICAL3 (UniProt Q7RTP6)
melting temperature shift [1]: 1.54 °C | melting temperature shift [2]: 0.332 °C

UniProt P10589
melting temperature shift [2]: -2.84 °C

UPF1 (UniProt Q92900)
melting temperature shift [1]: -0.299 °C | melting temperature shift [2]: 0.163 °C

ZFC3H1 (UniProt O60293)
melting temperature shift [1]: 0.19 °C

CCT8 (UniProt P50990)
melting temperature shift [1]: -0.805 °C | melting temperature shift [2]: -0.4 °C

TTC37 (UniProt Q6PGP7)
melting temperature shift [1]: -0.417 °C

TWISTNB (UniProt Q3B726)
melting temperature shift [1]: -1.24 °C

UBE2K (UniProt P61086)
melting temperature shift [1]: -1.5 °C | melting temperature shift [2]: 0.142 °C

ABHD16A (UniProt O95870)
melting temperature shift [1]: 3.21 °C | melting temperature shift [2]: -0.561 °C

UniProt O14782
melting temperature shift [2]: 0.285 °C

NRDC (UniProt O43847)
melting temperature shift [1]: -0.73 °C | melting temperature shift [2]: 0.24 °C

TIMM13 (UniProt Q9Y5L4)
melting temperature shift [1]: -0.744 °C

DNAJA3 (UniProt Q96EY1)
melting temperature shift [1]: 1.54 °C | melting temperature shift [2]: 0.419 °C

HMGCS1 (UniProt Q01581)
melting temperature shift [1]: -0.249 °C | melting temperature shift [2]: 0.223 °C

CDS2 (UniProt O95674)
melting temperature shift [1]: 3.43 °C | melting temperature shift [2]: -1.39 °C

MRPL10 (UniProt Q7Z7H8)
melting temperature shift [1]: 2.99 °C

Many values rest on one well or one pass, so single values are uncertain.
